Laboratory results: PubChem BioAssay AID743454 (Peter MacCallum Cancer Centre, 2014)
Shown is an unselected part of about 18,000 reagents tested. 450 of them (2.5%) count as active. 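Single biological run; no consistent viability z cut-off exists, so the class columns, not z-scores, define the calls.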 Unmarked entries are inactive. Reagent sequences are not shown.

- Purpose: 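Genes whose loss kills vorinostat-resistant colon cancer cells under vorinostat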 (primary screen)
- Cell system: human HCT116-VR colon cancer cells, selected for vorinostat resistance
- Knock-down reagent: siRNA pool against human genes, 40 nM siRNA pool
- Timing: vorinostat for 24 h, read-out about 72 h after transfection
- Treatment: vorinostat at 2.5 µM final
- Detection: 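Two measures, CellTiter-Fluor viability and luminescent caspase 3/7 activity, each as fold change against same-plate mock wells, mean of duplicates, then screen-wide robust z-score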
- Direction: viability robust z-score: higher = more viable cells than screen typical; caspase robust z-score: higher = more caspase 3/7 activity than screen typical
- Call rule: 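a knock-down is a hit when classed RV1 or RV2 for lowered viability, or CA1 or CA2 for caspase activation; those lethal without drug were dropped; hits were retested singly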

The opening 3 records, ahead of the listing:
Gene	viability hit class	caspase hit class	viability robust z-score	caspase robust z-score
ADRB3	no change	no change	0.27	1.64
ZNF287	no change	no change	0.14	0.04
FAM174A	no change	no change	0.21	-1.25

The list itself, repeating the preview:
Gene	viability hit class	caspase hit class	viability robust z-score	caspase robust z-score
ADRB3	no change	no change	0.27	1.64
ZNF287	no change	no change	0.14	0.04
FAM174A	no change	no change	0.21	-1.25
CCDC6	no change	no change	-0.52	0.08
NHLRC3	no change	no change	-0.55	-0.06
DDX24	no change	no change	-0.92	1.48
NGRN	no change	no change	0.99	-0.17
GPR6	no change	no change	0.37	-0.98
CENPP	no change	no change	0.97	0.18
ACAP3	no change	no change	-0.19	-0.5
NEIL3	no change	no change	0.48	-0.24
COL5A1	no change	no change	1.25	0.05
LRRC27	no change	no change	-1.23	-0.4
RUMY4	no change	no change	0.01	-0.77
PIH1D1	no change	no change	-0.12	0.54
TDRD6	no change	no change	1.69	0.06
CDC40	no change	no change	-2.34	-1.2
LRP3	no change (active)	CA1 (caspase activation)	-0.32	5.77
SLC22A1	no change	no change	-0.4	-0.26
ZUP1	no change	no change	-1.95	-0.28
CKAP4	no change	no change	0.14	0.77
TAF1C	no change	no change	-0.48	-0.54
CLEC18C	no change	no change	0.57	-0.82
NAPA	no change	no change	-6.4	0.1
BLOC1S2	no change	no change	-0.5	-1.15
SPC24	no change	no change	-1.15	4.03
OR1D4	no change	no change	-0.45	3.13
DENND1A	no change	no change	0.26	-0.78
TTI1	no change	no change	1.1	3.92
TMEM106C	no change	no change	-0.6	1.14
CAPRIN1	no change	no change	0.32	0.93
KTN1	no change	no change	-4.97	2.04
HNRNPAB	no change	no change	0.3	-1.05
NUMB	no change	no change	0.42	-0.44
SNPH	no change	no change	-0.6	3.19
ELMOD2	no change	no change	0.48	1.9
YPEL3	no change	no change	1.13	-0.68
PGBD3	no change	no change	-0.15	-0.57
EPHX1	no change	no change	0.12	2.11
